Sequences of proteins named here, by UniProt entry; tags and fusion partners are left off. A change or cut given only in a name is not applied to a line headed by its entry.
UniProt O95777: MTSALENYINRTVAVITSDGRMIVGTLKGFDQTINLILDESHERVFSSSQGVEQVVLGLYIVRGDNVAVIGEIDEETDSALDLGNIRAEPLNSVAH
UniProt O94973, whole entry: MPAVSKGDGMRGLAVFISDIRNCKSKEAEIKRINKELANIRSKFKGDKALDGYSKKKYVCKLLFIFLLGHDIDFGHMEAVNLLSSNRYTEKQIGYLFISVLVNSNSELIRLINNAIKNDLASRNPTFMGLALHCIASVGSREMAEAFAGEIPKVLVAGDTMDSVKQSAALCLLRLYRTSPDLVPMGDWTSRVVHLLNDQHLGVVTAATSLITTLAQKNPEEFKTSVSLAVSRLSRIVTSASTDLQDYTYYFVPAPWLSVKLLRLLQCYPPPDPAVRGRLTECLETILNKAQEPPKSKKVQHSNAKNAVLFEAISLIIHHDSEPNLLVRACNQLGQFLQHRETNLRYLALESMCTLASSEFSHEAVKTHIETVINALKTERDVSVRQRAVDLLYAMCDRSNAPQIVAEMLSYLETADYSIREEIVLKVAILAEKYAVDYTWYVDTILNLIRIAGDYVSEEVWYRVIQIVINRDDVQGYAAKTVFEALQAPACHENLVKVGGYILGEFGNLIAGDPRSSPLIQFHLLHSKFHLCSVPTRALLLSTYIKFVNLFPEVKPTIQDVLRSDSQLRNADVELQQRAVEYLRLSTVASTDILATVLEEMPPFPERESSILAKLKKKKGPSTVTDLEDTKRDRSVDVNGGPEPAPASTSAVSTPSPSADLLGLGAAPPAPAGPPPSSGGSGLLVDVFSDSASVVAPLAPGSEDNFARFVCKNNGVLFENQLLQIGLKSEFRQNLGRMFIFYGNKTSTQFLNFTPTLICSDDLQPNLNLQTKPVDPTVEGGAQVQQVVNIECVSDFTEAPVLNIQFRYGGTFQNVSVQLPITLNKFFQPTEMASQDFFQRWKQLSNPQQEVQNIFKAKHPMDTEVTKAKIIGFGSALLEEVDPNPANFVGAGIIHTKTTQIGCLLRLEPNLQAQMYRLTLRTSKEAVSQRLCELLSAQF
UniProt O95486: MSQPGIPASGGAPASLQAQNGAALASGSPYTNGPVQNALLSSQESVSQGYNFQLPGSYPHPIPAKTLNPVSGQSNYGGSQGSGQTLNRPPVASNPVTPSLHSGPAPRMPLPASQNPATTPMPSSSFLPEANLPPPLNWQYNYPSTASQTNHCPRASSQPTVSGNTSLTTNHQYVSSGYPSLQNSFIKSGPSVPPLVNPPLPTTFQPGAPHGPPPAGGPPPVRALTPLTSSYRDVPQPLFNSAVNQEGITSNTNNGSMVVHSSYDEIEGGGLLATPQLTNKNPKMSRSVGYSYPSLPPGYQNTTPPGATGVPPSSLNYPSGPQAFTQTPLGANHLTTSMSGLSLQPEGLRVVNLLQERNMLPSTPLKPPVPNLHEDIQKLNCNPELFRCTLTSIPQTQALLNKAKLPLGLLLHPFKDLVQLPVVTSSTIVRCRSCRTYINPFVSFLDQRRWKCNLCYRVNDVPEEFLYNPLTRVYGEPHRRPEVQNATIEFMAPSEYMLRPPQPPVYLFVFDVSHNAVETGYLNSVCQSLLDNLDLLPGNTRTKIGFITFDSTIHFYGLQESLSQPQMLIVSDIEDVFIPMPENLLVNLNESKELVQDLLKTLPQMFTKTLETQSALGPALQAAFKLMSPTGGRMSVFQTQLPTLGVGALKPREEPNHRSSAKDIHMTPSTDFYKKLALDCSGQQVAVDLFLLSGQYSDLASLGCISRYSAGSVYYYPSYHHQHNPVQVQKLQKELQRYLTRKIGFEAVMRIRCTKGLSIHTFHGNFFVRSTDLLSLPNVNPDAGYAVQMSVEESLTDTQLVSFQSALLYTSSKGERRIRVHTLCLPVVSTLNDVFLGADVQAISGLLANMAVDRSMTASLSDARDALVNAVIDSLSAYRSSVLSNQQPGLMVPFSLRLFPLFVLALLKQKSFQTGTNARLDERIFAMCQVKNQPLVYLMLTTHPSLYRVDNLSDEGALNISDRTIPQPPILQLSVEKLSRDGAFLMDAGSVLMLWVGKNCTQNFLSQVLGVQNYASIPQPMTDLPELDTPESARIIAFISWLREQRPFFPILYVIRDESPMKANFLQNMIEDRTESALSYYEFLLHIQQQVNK
UniProt O94887: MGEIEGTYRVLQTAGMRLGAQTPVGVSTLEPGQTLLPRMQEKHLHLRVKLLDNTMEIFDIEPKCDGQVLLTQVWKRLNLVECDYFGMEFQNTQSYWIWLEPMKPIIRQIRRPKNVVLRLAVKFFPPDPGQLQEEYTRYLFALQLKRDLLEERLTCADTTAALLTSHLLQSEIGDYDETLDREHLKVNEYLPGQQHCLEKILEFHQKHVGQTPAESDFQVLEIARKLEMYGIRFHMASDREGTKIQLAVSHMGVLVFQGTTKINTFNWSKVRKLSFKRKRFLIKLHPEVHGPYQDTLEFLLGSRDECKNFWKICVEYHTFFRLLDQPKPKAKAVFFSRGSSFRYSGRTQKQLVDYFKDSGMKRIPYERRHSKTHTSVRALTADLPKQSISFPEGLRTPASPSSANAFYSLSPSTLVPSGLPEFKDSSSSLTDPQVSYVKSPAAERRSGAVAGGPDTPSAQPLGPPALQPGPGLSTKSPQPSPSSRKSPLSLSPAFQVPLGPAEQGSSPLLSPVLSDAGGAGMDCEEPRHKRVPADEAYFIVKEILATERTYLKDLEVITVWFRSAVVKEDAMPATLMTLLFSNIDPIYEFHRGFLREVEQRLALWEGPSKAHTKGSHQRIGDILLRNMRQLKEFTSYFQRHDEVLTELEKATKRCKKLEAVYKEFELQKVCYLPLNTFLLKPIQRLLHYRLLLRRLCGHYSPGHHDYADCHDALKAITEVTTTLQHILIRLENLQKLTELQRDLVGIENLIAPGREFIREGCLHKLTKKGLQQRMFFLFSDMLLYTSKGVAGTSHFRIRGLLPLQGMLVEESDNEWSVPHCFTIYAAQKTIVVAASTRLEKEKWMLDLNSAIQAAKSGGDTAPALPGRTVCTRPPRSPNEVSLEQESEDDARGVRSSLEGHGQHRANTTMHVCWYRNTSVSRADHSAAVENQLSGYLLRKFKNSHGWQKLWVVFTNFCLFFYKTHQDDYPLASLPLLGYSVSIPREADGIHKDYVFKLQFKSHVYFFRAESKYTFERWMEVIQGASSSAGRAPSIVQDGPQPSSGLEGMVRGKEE
UniProt O95568: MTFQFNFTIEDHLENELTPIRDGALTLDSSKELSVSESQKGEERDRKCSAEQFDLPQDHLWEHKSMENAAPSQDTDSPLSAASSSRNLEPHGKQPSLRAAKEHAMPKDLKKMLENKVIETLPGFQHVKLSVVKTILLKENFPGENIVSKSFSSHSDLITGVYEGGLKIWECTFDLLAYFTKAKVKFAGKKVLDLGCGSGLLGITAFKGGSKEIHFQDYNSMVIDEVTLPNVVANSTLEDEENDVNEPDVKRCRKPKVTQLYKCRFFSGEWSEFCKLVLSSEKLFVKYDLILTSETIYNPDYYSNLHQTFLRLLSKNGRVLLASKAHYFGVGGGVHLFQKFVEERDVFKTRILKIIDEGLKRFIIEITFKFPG
UniProt O75956: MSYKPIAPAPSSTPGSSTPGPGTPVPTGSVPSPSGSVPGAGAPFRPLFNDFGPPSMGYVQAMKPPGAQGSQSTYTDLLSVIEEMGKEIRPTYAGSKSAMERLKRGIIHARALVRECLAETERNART
UniProt O95260: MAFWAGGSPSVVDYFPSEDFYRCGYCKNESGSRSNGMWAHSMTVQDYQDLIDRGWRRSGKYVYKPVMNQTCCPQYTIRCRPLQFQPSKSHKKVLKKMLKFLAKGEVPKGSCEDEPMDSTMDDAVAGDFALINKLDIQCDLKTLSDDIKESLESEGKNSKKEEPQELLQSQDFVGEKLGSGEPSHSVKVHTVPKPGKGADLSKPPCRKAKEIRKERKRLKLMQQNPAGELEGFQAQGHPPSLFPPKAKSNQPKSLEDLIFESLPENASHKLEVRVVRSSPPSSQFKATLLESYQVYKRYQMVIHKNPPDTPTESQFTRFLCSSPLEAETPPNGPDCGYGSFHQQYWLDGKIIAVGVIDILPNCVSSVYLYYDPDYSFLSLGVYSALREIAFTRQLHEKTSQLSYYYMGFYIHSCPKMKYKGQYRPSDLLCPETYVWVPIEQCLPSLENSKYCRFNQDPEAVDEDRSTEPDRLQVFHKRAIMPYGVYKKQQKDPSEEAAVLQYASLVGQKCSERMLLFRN
UniProt O75648: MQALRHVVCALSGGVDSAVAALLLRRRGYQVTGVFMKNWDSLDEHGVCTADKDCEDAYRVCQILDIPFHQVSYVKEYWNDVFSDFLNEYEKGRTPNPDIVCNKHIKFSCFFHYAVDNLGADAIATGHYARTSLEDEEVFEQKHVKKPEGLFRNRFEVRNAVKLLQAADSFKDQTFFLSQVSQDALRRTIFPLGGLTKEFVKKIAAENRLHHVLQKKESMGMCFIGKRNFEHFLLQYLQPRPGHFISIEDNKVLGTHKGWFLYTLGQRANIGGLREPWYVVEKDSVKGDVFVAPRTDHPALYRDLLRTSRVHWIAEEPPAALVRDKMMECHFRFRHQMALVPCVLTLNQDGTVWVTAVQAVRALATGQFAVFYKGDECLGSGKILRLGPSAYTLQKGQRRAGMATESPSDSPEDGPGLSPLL
UniProt O94832: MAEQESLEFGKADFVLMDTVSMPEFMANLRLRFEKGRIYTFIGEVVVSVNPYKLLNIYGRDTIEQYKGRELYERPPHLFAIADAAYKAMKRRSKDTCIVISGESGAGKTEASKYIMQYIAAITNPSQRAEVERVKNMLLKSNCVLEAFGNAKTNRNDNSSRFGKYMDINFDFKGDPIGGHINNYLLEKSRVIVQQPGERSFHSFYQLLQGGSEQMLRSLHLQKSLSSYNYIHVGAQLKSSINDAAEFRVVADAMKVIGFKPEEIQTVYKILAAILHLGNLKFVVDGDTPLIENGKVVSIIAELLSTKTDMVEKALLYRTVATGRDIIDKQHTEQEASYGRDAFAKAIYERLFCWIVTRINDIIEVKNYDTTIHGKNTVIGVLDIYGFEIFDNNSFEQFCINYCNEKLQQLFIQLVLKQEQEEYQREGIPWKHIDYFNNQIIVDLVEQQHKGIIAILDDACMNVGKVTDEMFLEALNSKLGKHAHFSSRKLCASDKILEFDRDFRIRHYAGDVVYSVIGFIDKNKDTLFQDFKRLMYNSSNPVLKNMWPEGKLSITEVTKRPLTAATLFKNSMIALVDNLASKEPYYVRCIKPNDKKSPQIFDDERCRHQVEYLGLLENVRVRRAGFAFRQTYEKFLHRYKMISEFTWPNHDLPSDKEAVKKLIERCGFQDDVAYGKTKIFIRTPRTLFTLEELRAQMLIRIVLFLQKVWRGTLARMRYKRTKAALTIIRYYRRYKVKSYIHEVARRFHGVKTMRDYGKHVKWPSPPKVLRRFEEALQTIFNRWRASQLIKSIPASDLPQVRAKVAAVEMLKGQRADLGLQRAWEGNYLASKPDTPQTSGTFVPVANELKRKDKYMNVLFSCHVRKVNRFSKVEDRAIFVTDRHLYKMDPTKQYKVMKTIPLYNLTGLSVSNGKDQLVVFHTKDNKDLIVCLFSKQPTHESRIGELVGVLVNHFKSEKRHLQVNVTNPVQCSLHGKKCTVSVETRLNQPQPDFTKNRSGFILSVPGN
UniProt O95644: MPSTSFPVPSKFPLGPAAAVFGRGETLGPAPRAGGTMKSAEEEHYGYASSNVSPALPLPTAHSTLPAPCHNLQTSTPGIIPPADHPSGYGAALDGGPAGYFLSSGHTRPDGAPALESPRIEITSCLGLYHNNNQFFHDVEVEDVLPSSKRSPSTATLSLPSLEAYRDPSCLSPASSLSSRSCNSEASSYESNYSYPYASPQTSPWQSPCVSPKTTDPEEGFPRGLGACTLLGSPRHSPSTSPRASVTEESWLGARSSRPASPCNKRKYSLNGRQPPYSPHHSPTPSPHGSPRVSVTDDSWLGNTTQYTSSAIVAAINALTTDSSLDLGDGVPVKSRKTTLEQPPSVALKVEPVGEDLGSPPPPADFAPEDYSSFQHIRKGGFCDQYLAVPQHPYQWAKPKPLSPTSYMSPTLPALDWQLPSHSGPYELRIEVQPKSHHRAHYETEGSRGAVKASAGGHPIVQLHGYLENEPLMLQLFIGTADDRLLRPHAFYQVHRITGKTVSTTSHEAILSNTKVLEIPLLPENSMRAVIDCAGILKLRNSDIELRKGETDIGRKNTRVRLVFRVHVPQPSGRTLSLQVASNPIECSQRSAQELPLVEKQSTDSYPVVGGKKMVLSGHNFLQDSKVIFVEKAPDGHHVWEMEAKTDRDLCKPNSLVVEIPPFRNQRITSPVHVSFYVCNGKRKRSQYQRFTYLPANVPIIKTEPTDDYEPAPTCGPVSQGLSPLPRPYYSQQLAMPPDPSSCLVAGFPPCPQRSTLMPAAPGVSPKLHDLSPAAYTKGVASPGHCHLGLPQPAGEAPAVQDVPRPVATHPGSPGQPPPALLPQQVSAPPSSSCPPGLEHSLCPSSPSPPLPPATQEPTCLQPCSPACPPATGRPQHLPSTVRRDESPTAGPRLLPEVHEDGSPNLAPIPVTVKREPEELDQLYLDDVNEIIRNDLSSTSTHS

Some of the results follow. Most values lie at the level of the controls, where differences are scatter.
The targets below were run with Cc1nc(Nc2ncc(C(=O)Nc3c(C)cccc3Cl)s2)cc(N2CCN(CCO)CC2)n1 [dasatinib] (assay: log2 fold change of tryptic peptide abundance, ligand vs vehicle (limited proteolysis) (log2 ratio); higher = more trypsin-susceptible (destabilized)). Conditions: ligand concentration: 5 uM; sample: K562 cleared lysate.
Work on “NDUFS3 (peptide sequence: ILTDYGFEGHPFR, peptide start residue: 187) (UniProt O75489)” yielded a log2 fold change of 0.362. Target “SNAPIN (peptide sequence: RLNHSVAK, peptide start residue: 108) (UniProt O95295)” has a log2 fold change of 0.48. Target “NUDT3 (peptide sequence: TYDGDGYK, peptide start residue: 11) (UniProt O95989)” has a log2 fold change of 0.103. “PGM3 (peptide sequence: AFVRPSGTEDVVR, peptide start residue: 493) (UniProt O95394)” showed a log2 fold change of -0.171. In the case of “UniProt O94875 (peptide sequence: CDDGWFVGTSRR, peptide start residue: 1264)”, the log2 fold change is reported as 0.264. Work on “PIAS2 (peptide sequence: VSSQPCTK, peptide start residue: 436) (UniProt O75928)” yielded a log2 fold change of -0.427. Target “UniProt O96028 (peptide sequence: LRFESQEMK, peptide start residue: 98)” has a log2 fold change of 0.415. “UniProt O95777 (peptide sequence: AEPLNSVAH, peptide start residue: 88)” was tested, and the log2 fold change was 0.109. With “UniProt O95198 (peptide sequence: VEEEALVK, peptide start residue: 259)” the log2 fold change was 0.457. For “SMC2 (peptide sequence: DYDWINAER, peptide start residue: 937) (UniProt O95347)”, the log2 fold change was 0.107. For “UniProt O95995 (peptide sequence: HLLYEHQNNLTEMK, peptide start residue: 104)”, the log2 fold change was 0.385. “IPO7 (peptide sequence: FKSDQNLQTALELTRR, peptide start residue: 488) (UniProt O95373)” showed a log2 fold change of 0.566. For “AP2A2 (peptide sequence: SSPLIQFHLLHSK, peptide start residue: 516) (UniProt O94973)”, the log2 fold change was -0.286. “STC2 (peptide sequence: AHHGEAGHHLPEPSSR, peptide start residue: 237) (UniProt O76061)” showed a log2 fold change of 0.363. “SEC24A (peptide sequence: AKLPLGLLLHPFK, peptide start residue: 403) (UniProt O95486)” showed a log2 fold change of -0.441. With “UniProt O95747 (peptide sequence: IVEEPQSNR, peptide start residue: 489)” the log2 fold change was -0.0761. Target “SNRNP200 (peptide sequence: DLLPYGFAIHHAGMTR, peptide start residue: 776) (UniProt O75643)” has a log2 fold change of -0.33. With “ZRANB2 (peptide sequence: GKAVGPASILK, peptide start residue: 136) (UniProt O95218)” the log2 fold change was -0.347. Work on “FARP2 (peptide sequence: QLVDYFKDSGMK, peptide start residue: 350) (UniProt O94887)” yielded a log2 fold change of 0.426. “MICAL2 (peptide sequence: FEESTRNPSLMK, peptide start residue: 726) (UniProt O94851)” gave a log2 fold change of -0.299. Target “UniProt O95568 (peptide sequence: ENFPGENIVSK, peptide start residue: 139)” has a log2 fold change of 0.124. In the case of “UniProt O75530 (peptide sequence: EVSTAPAGTDMPAAKK, peptide start residue: 5)”, the log2 fold change is reported as -0.214. With “UniProt O95551 (peptide sequence: SLDLLGLEK, peptide start residue: 333)” the log2 fold change was -0.181. With “CDK2AP2 (peptide sequence: ALVRECLAETER, peptide start residue: 111) (UniProt O75956)” the log2 fold change was -0.158. Work on “DHFR (peptide sequence: YKFEVYEKND, peptide start residue: 178) (UniProt P00374)” yielded a log2 fold change of 0.306. “ATE1 (peptide sequence: LGSGEPSHSVK, peptide start residue: 177) (UniProt O95260)” gave a log2 fold change of -0.19. In the case of “LATS1 (peptide sequence: DIKPDNILIDRDGHIK, peptide start residue: 828) (UniProt O95835)”, the log2 fold change is reported as -0.388. For “RSL1D1 (peptide sequence: EQTPEHGK, peptide start residue: 338) (UniProt O76021)”, the log2 fold change was -0.172. Work on “KATNA1 (peptide sequence: NLSKEEMHMPTTMEDFEMALKK, peptide start residue: 447) (UniProt O75449)” yielded a log2 fold change of -0.447. In the case of “CAVIN2 (peptide sequence: RLENNHAQLLR, peptide start residue: 141) (UniProt O95810)”, the log2 fold change is reported as 0.0863. “TRMU (peptide sequence: TDHPALYR, peptide start residue: 295) (UniProt O75648)” showed a log2 fold change of 0.383. “UniProt O95166 (peptide sequence: FVYKEEHPFEK, peptide start residue: 3)” was tested, and the log2 fold change was -0.19. “MYO1D (peptide sequence: DLIVCLFSKQPTHESR, peptide start residue: 926) (UniProt O94832)” showed a log2 fold change of 0.594. In the case of “APBA3 (peptide sequence: TMPAATYR, peptide start residue: 557) (UniProt O96018)”, the log2 fold change is reported as 0.183. Target “ZBTB7A (peptide sequence: HFKDEDEDEDVASPDGLGR, peptide start residue: 537) (UniProt O95365)” has a log2 fold change of 0.488. With “NFATC1 (peptide sequence: GLGACTLLGSPR, peptide start residue: 224) (UniProt O95644)” the log2 fold change was 0.105. “LETM1 (peptide sequence: VNIDDLVK, peptide start residue: 683) (UniProt O95202)” showed a log2 fold change of -0.292. Target “SNCG (peptide sequence: EQANAVSEAVVSSVNTVATK, peptide start residue: 61) (UniProt O76070)” has a log2 fold change of 0.7.
